# Data source: PubChem BioAssay AID1224830 (NIAID, 2016)
# Purpose: 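Genes whose knock-down alters the TNF-alpha reporter response to LPS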 (primary screen)
# System: human THP-1 monocytic leukaemia cells, TNF dual-luciferase reporter clone, PMA-differentiated to macrophage-like cells
# Reagent: siRNA pool against human genes, 50 nM
# Duration: LPS for 4 h, given about 3 days after siRNA transfection
# Conditions: bacterial LPS (TLR4 ligand), 10 ng/ml
# Measurement: 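TNF firefly reporter luminescence divided by renilla, normalised to the plate median, then turned into a robust z-score for each replicate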
# Reading the numbers: TNF reporter robust z-score: higher = stronger TNF reporter response to LPS
# Active means: 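Each well counts as active if its z-score is over 2.8 or under -1.5; controls are left without a call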
# This is one part, drawn at random, of about 18,000 deposited reagents. Over the whole deposit, about 2,900 (16%) were called active. 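Calls are made per well; low scores hint the gene aids the LPS response, high scores that it dampens it.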 Entries without a mark were called inactive. Reagents against one gene are numbered here. Repeated entries: four replicate wells of each siRNA pool. Reagent sequences are not shown.
gene,pool no.,TNF reporter robust z-score
GGT6 (GeneID 124975),1,-0.48
GGT6 (GeneID 124975),1,-0.4
GGT6 (GeneID 124975),1,-0.63
GGT6 (GeneID 124975),1,-0.94
BATF2 (GeneID 116071),1,3.35 (active)
BATF2 (GeneID 116071),1,4.73 (active)
BATF2 (GeneID 116071),1,4.44 (active)
BATF2 (GeneID 116071),1,4.77 (active)
BRIP1 (GeneID 83990),1,0.41
BRIP1 (GeneID 83990),1,0.73
BRIP1 (GeneID 83990),1,-0.22
BRIP1 (GeneID 83990),1,0.79
BTN2A1 (GeneID 11120),1,-0.86
BTN2A1 (GeneID 11120),1,0.1
BTN2A1 (GeneID 11120),1,0.25
BTN2A1 (GeneID 11120),1,0.55
CCDC74B (GeneID 91409),1,-0.25
CCDC74B (GeneID 91409),1,0.05
CCDC74B (GeneID 91409),1,-1.09
CCDC74B (GeneID 91409),1,-0.72
USHBP1 (GeneID 83878),1,0.83
USHBP1 (GeneID 83878),1,1.2
USHBP1 (GeneID 83878),1,0.9
USHBP1 (GeneID 83878),1,-0.4
NAT8B (GeneID 51471),1,-0.5
NAT8B (GeneID 51471),1,-0.44
NAT8B (GeneID 51471),1,-0.27
NAT8B (GeneID 51471),1,0.18
ADA2 (GeneID 51816),1,-0.38
ADA2 (GeneID 51816),1,0.22
ADA2 (GeneID 51816),1,0.19
ADA2 (GeneID 51816),1,-0.46
H2BC3 (GeneID 3018),1,-0.53
H2BC3 (GeneID 3018),1,0
H2BC3 (GeneID 3018),1,-0.86
H2BC3 (GeneID 3018),1,-0.45
EPHA6 (GeneID 285220),1,-1.48
EPHA6 (GeneID 285220),1,0.1
EPHA6 (GeneID 285220),1,-0.76
EPHA6 (GeneID 285220),1,-1.44
POR (GeneID 5447),1,-1.43
POR (GeneID 5447),1,-1.54 (active)
POR (GeneID 5447),1,-1.38
POR (GeneID 5447),1,-1.22
ZNF570 (GeneID 148268),1,-0.83
ZNF570 (GeneID 148268),1,-0.63
ZNF570 (GeneID 148268),1,0.19
ZNF570 (GeneID 148268),1,0.23
PAMR1 (GeneID 25891),1,-0.83
PAMR1 (GeneID 25891),1,-0.35
PAMR1 (GeneID 25891),1,-0.29
PAMR1 (GeneID 25891),1,-0.74
PTPN6 (GeneID 5777),1,-1.25
PTPN6 (GeneID 5777),1,1.56
PTPN6 (GeneID 5777),1,-0.23
PTPN6 (GeneID 5777),1,-1.65 (active)
TOR1AIP2 (GeneID 163590),1,1.91
TOR1AIP2 (GeneID 163590),1,1.8
TOR1AIP2 (GeneID 163590),1,1.68
TOR1AIP2 (GeneID 163590),1,2.49
TOR1AIP2 (GeneID 163590),2,0.36
TOR1AIP2 (GeneID 163590),2,1.11
TOR1AIP2 (GeneID 163590),2,1.97
TOR1AIP2 (GeneID 163590),2,1.46
LATS2 (GeneID 26524),1,-0.05
LATS2 (GeneID 26524),1,0.73
LATS2 (GeneID 26524),1,0.94
LATS2 (GeneID 26524),1,1.1
H3-4 (GeneID 8290),1,-0.37
H3-4 (GeneID 8290),1,-1.03
H3-4 (GeneID 8290),1,-0.68
H3-4 (GeneID 8290),1,-0.41
NEFH (GeneID 4744),1,0.78
NEFH (GeneID 4744),1,0.71
NEFH (GeneID 4744),1,1.87
NEFH (GeneID 4744),1,1.36

12 entries from above, arranged by “TNF reporter robust z-score”, ascending:
gene,pool no.,TNF reporter robust z-score
H2BC3 (GeneID 3018),1,-0.53
NAT8B (GeneID 51471),1,-0.5
ADA2 (GeneID 51816),1,-0.46
NAT8B (GeneID 51471),1,-0.44
USHBP1 (GeneID 83878),1,-0.4
ADA2 (GeneID 51816),1,-0.38
NAT8B (GeneID 51471),1,-0.27
H2BC3 (GeneID 3018),1,0
NAT8B (GeneID 51471),1,0.18
ADA2 (GeneID 51816),1,0.19
ADA2 (GeneID 51816),1,0.22
USHBP1 (GeneID 83878),1,0.9
